Hit rate of the full screen: of about 320,000 compounds, about 2,100 (0.66%) were called active. The shares of active, inactive and inconclusive entries below differ from those in the screen. Calls come from the whole dose curve; as a rule, active = well fitted inhibition curve with a large enough effect in the signal ratio, with a control signal flat (not every such curve was filed as active); inconclusive = small, poorly fitted or top-dose-only effect, or effect the other way, or a change in a side signal; inactive = flat fitted curve, though single readings scatter; the % refers to the signal ratio. A potency beside an inconclusive call is a rough fit, not a confirmed value.
Assay: qHTS Assay for Lipid Storage Modulators in Drosophila S3 Cells
Details: BODIPY lipid droplet fluorescence, 18-24 h, cells fed with added oleic acid; lipid storage change, negative = inhibition: at 46.1 µM (top of the series) unless noted
Method in brief: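 Drosophila S3 cells got compounds at several concentrations plus oleic acid (400 uM solution). Laser-scanning cytometry with 488 nm excitation read lipid droplets at 500-530 nm and cells at 575-640 nm. Percent activity was relative to 20 uM Triacsin C.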
% is set by controls: 0 for no effect and ±100 for the full control effect; potency is the fitted concentration of half-maximal effect.

Row | Compound | lipid storage change, negative = inhibition | Potency
1 | Cc1cc2nc3n(c2cc1C)CC1CC(C(=O)NCc2ccccc2)N(C)C31 (configuration not stated) | inconclusive: 17.5% | –
2 | Cn1nnnc1SCC(=O)NC(C)(C)C | inconclusive: -151% | –
3 | CCN(CC)S(=O)(=O)c1cc(Cl)ccc1OC | inconclusive: -32.6% [at 0.00295 µM] | –
4 | CCCCn1c(N)c(N(CC)C(=O)CSCc2ccc(C)cc2)c(=O)[nH]c1=O | – | inconclusive: 35.5 µM [falling, single point]
5 | Cc1nc(SCC(=O)NCc2ccc3c(c2)OCO3)c(C#N)c2c1CCCC2 | inconclusive: 56.8% | –
6 | Cn1c(=O)n(C)c2cc([N+](=O)[O-])c(N3CCN(C(=O)c4cccc(F)c4)CC3)cc21 | inconclusive: -15.6% | –
7 | Cc1csc(NC(=O)CSC2=NS(=O)(=O)c3cc(F)ccc3N2)n1 | inactive: 27.8% [at 0.0737 µM] | –
8 | Cc1ccc(-c2nc3ccccc3c(=O)n2CCCn2ccnc2)cc1 | inconclusive: 21.2% | –
9 | COc1cc(NC(=O)CSc2nnc(-c3ccncc3)o2)cc(OC)c1OC | inconclusive: 17.2% | –
10 | Cc1cnn(C(=O)c2ccccc2Br)c1 | – | inconclusive: 29.1 µM [falling, single point]
11 | CN(Cc1cn(C)nc1-c1cccc(Cl)c1)Cc1nccn1C | inconclusive: 15.6% | –
12 | Cc1ccccc1OCC(=O)OCC(=O)c1cc(C)n(C2CC2)c1C | – | inconclusive: 0.103 µM [activator, full curve]
13 | Cc1ccccc1NC(=O)c1ccc2c(c1)N(C)CCS2 | inconclusive: 3.95% | –
14 | C=CCNC(=S)NNC(=O)C(CCCC)CC(C)O (configuration not stated) | – | active: 29.1 µM
15 | Cc1ccc(C(=O)N(CC(=O)NC2CCCCC2)c2ccccc2F)s1 | – | inconclusive: 5.8 µM [falling, full curve]
16 | Cc1nn(CCC(=O)N2CCN(S(=O)(=O)c3ccccc3)CC2)c(C)c1C | inactive | –
17 | CC1(C)CC(=O)C(C=Nc2ccccc2C(=O)O)=C(O)C1 | inconclusive: -16.5% | –
18 | Cc1ccc(S(=O)(=O)N2CCN(C(=O)C(Cc3ccccc3)NC(=O)c3ccccc3)CC2)cc1 (configuration not stated) | – | inconclusive: 18.4 µM [activator, single point]
19 | CN(CCOC(=O)/C=C/c1ccccc1)C(C)(C)C | inconclusive: -69% | –
20 | O=C(c1cc2c(s1)-c1ccccc1OC2)N1CCN(c2ccccc2)CC1 | inconclusive: 2.62% | –
21 | CC(C)c1cccc(C(C)C)c1NC(=O)CCl | inconclusive: -112% | –
22 | COC(=O)CCC(=O)Nc1nnc(C(F)(F)F)s1 | inconclusive: -12.2% | –
23 | O=C1/C(=C/c2ccccc2Cl)SC(=S)N1CCC(=O)N1CCCCC1CCO (configuration not stated) | inconclusive: -91% | –
24 | Cc1ccc(NC(=O)Nc2ccc3c(c2)OCO3)cc1F | inconclusive: 47.1% | –
25 | Cc1ccc(NC(=O)CCC(=O)NNC(=O)/C=C/C(=O)O)c(C)c1 | – | inconclusive: 2.06 µM [rising, partial curve]
26 | CCCc1cc(=O)oc2cc(C)cc(OC(C)C(=O)N[C@@H](Cc3c[nH]c4ccccc34)C(=O)O)c12 (some centres not stated) | inconclusive: 22.2% | –

Some of the entries so far, as a markdown table:

| Row | Compound | lipid storage change, negative = inhibition | Potency |
| --- | --- | --- | --- |
| 11 | CN(Cc1cn(C)nc1-c1cccc(Cl)c1)Cc1nccn1C | inconclusive: 15.6% | – |
| 12 | Cc1ccccc1OCC(=O)OCC(=O)c1cc(C)n(C2CC2)c1C | – | inconclusive: 0.103 µM [activator, full curve] |
| 13 | Cc1ccccc1NC(=O)c1ccc2c(c1)N(C)CCS2 | inconclusive: 3.95% | – |
| 14 | C=CCNC(=S)NNC(=O)C(CCCC)CC(C)O (configuration not stated) | – | active: 29.1 µM |
| 15 | Cc1ccc(C(=O)N(CC(=O)NC2CCCCC2)c2ccccc2F)s1 | – | inconclusive: 5.8 µM [falling, full curve] |

(further entries)

Row | Compound | lipid storage change, negative = inhibition | Potency
27 | CCc1noc(C)c1C(=O)Nc1cccc(S(=O)(=O)N2CCCCCC2)c1 | inconclusive: 32.2% | –
28 | Cc1ccc(OCCC(=O)OCC(=O)Nc2ccc3c(c2)OCCO3)cc1 | inconclusive | –
29 | CC1(C)CC(=O)C(C2NCCc3ccccc32)=C(O)C1 (configuration not stated) | – | inconclusive: 4.61 µM [falling, partial curve, poor fit]
30 | CC(=O)Nc1ccc(Nc2cc(C)nc3c(-c4ccccc4)c(C)nn23)cc1 | inconclusive: 4.11% | –
31 | Cc1cc(C)cc(NC(=O)COc2coc(CN3CCc4ccccc4C3)cc2=O)c1 | inactive | –
32 | CCC(C)NC(=O)c1ccc(NS(=O)(=O)c2ccc3[nH]c(=O)[nH]c3c2)cc1 (configuration not stated) | inconclusive: -13.1% | –
33 | Cc1cc(=O)c(C(=O)O)nn1-c1ccccc1[N+](=O)[O-] | inconclusive: -32.4% | –
34 | COc1cccc(C(=O)Nc2cccc(S(=O)(=O)NC3=NCCC3)c2)c1 | – | inconclusive: 0.164 µM [activator, full curve, poor fit]
35 | COc1ccc(CN(CC(=O)NCc2ccco2)C(=O)CNS(=O)(=O)c2ccc(C)cc2)cc1 | inconclusive: 71.1% | –
36 | Nc1ncnc(Oc2ccccc2F)c1[N+](=O)[O-] | – | inconclusive: 29.1 µM [cytotoxic, single point]
37 | CCOCCCNC(=O)C(Cc1ccccc1)NC(=O)c1ccco1 (configuration not stated) | – | active: 13 µM
38 | COc1cc2c(cc1OC)C(C)N(C(=O)c1sc(-c3cnccn3)nc1C)CC2 (configuration not stated) | – | inconclusive: 10.3 µM [activator, partial curve, poor fit]
39 | O=Cc1ccc(Sc2ncccn2)o1 | inconclusive: -48.5% | –
40 | CC(=O)N(C)N(C)c1cc(C)nc(N)n1 | – | inconclusive: 32.6 µM [activator, single point]
41 | CN1CCN(C(=O)c2cccn(Cc3ccc(C(F)(F)F)cc3)c2=O)CC1 | inconclusive: 6.73% | –
42 | CN1CCN(S(=O)(=O)c2cccc3nsnc23)CC1 | inconclusive: 1.9% | –
43 | CCOC(=O)Nc1ccc2c(c1)N(C(=O)CN1CCN(CCO)CC1)c1ccccc1CC2 | inconclusive: -50.5% | –
44 | COCc1cc([C@@H]2C[C@H]3CN(c4ccccc4)C(=O)[C@]34CCCN24)ccc1OC | inconclusive: 21.8% | –
45 | O=C(COc1ccc2c3c(c(=O)oc2c1)CCC3)Nc1ccc(CCO)cc1 | – | inconclusive: 25.9 µM [activator, partial curve, poor fit]
46 | Cc1ccc(S(=O)(=O)N(C)c2cc(S(=O)(=O)N3CCOCC3)c(C)cc2C)cc1 | inconclusive: -16.5% | –
47 | Cc1cc(C)c(C#N)c(SCc2ccccc2C(=O)O)n1 | inconclusive: 8.93% | –
48 | Cc1ccc(C)c(OCC(=O)Nc2ccc3c(c2)OCO3)c1 | inconclusive: 2.99% | –
49 | COc1cccc(CN(C)C(=O)c2ccccc2SCC(=O)N2CCCC2)c1 | inconclusive: -30.9% | –
50 | C/C(=N\Nc1ccc(S(=O)(=O)Nc2ccccc2)cc1[N+](=O)[O-])c1ccc(N2CCOCC2)cc1 | – | inconclusive: 1.3 µM [falling, full curve]
51 | COc1ccc(C(=O)N(C)CCCC2CCCC2)cc1OC1CCN(C(C)=O)CC1 | – | inconclusive: 1.84 µM [falling, partial curve]
52 | COC(=O)NN=C1CCC(c2ccccc2)CC1 (configuration not stated) | – | inconclusive: 6.51 µM [falling, single point]

Row | Compound | lipid storage change, negative = inhibition | Potency
53 | CCCC(=O)Nc1nnc(Sc2ccc(N(C)C)cc2)s1 | – | inconclusive: 0.82 µM [activator, single point]
54 | CCN(C(=O)COC(=O)c1cc(-c2ccccc2)nc2c1c(C)nn2-c1ccc(C)cc1)C1CCS(=O)(=O)C1 (configuration not stated) | – | inconclusive: 29.1 µM [activator, single point]
55 | COc1ccc(C2C(C(=O)O)CC(=O)N2c2ccc(OC)cc2)cc1 (configuration not stated) | inconclusive: 4.95% | –
56 | COc1ccc(S(=O)(=O)N2CCc3ccccc32)cc1C(=O)N1CCOCC1 | inconclusive | –
57 | COc1ccc(NC(=O)COC(=O)c2ccc(Br)o2)cc1OC | inconclusive: 3.03% | –
58 | CC(=O)Nc1ccc(-c2cn3ccsc3n2)cc1 | – | inconclusive: 3.26 µM [activator, partial curve]
59 | O=C(CN1C(=O)NC2(CCCC2)C1=O)NCCc1ccc(Cl)cc1Cl | inconclusive: -37.5% | –
60 | CC(C)CSc1ncnc2c1oc1nc3c(cc12)COC(C)(C)C3 | inconclusive: 76.5% | –
61 | NC(=O)NC(c1ccccc1)c1cccc2ccccc12 (configuration not stated) | – | inconclusive: 2.59 µM [rising, partial curve, poor fit]
62 | CCOc1ccc(OCCC(=O)OCC(=O)NC(C)c2ccccc2)cc1 (configuration not stated) | inconclusive: -0.321% | –
63 | COCCN(Cc1cc2cc(C)c(C)cc2nc1Cl)C(=O)N1CCOCC1 | inconclusive: 1.52% | –
64 | COc1cc(OC)c(C(=O)OC(C)C(=O)Nc2cc(C(F)(F)F)ccc2Cl)cc1OC (configuration not stated) | – | inconclusive: 32.6 µM [falling, single point]
65 | COc1cc2nc(C3CCC3)nc(N3CCN(c4ccccn4)CC3)c2cc1OC | inconclusive: -10.5% | –
66 | COc1ccc(CN(C)C(C)C(=O)Nc2ccc([N+](=O)[O-])cc2Cl)cc1OC (configuration not stated) | inconclusive: -18.3% | –
67 | C/C(=N\NC(=O)CNc1cccc(C(F)(F)F)c1)c1cccs1 | inconclusive: 25.1% | –
68 | COc1ccc(OC)c(C2CC(c3c(-c4ccccc4)c4cc(Cl)ccc4[nH]c3=O)=NN2S(C)(=O)=O)c1 (configuration not stated) | inconclusive: 4.09% | –
69 | CCOCC(=O)Nc1cc(S(=O)(=O)N2CCOCC2)ccc1N1CCCCC1 | inconclusive: 0.637% | –
70 | COc1ccc(Nc2cccccc2=O)cc1 | inconclusive: 13.5% | –
71 | CC(C)N1C(=O)CC2(CC[N+](C)(CCOC(=O)C(c3ccccc3)c3ccccc3)CC2)C1=O (configuration not stated) | – | inconclusive: 25.9 µM [falling, single point]
72 | CC(C)(C)SCCNS(=O)(=O)c1ccc(F)cc1 | inconclusive: 13.9% | –
73 | O=C(c1cc2ccccc2o1)N1CCN(S(=O)(=O)c2c(F)cccc2F)CC1 | – | inconclusive: 23.1 µM [falling, single point]
74 | C=C1CSc2nc(=O)c3c4c(sc3n21)CCC4 | – | inconclusive: 20.6 µM [activator, single point]
75 | CCc1ccc(NC(=S)Nc2cccc3cnccc23)cc1 | – | inconclusive: 0.116 µM [activator, full curve, poor fit]
76 | O=C(COc1ccccc1)N(Cc1cccs1)C1CCS(=O)(=O)C1 (configuration not stated) | inconclusive: -25.2% | –
77 | COc1cccc(O)c1CN1CCC(n2nccc2NC(=O)c2ccc3c(c2)OCO3)CC1 | – | inconclusive: 29.1 µM [falling, single point]

From PubChem BioAssay AID2685 (National Center for Advancing Translational Sciences (NCATS), 2010)
